Experimental data from publication PMC5717197, “Mechanistic insight into TRIP13-catalyzed Mad2 structural transition and spindle checkpoint silencing” (Nature Communications, 2017).
Results are given in words; binding and its absence hold for the method and conditions named.

Biological target: TRIP13 G320A (human) (UniProt Q15645)
Test: condition: only in the absence of ATP (nucleotide-free); AUC; sedimentation velocity, 4 °C, in the absence of ATP, several concentrations; 10 mM HEPES pH 7.4, 300 mM NaCl, 5 mM MgCl2, 1.357 M glycerol, 1 mM TCEP; both purified

B1: TRIP13 G320A (enzyme, human, UniProt Q15645 1-432, looked up)
chain: MDEAVGDLKQALPCVAESPTVHVEVHQRGSSTAKKEDINLSVRKLLNRHNIVFGDYTWTEFDEPFLTRNVQSVSIIDTELKVKDSQPIDLSACTVALHIFQLNEDGPSSENLEEETENIIAANHWVLPAAEFHGLWDSLVYDVEVKSHLLDYVMTTLLFSDKNVNSNLITWNRVVLLHGPPGTGKTSLCKALAQKLTIRLSSRYRYGQLIEINSHSLFSKWFSESGKLVTKMFQKIQDLIDDKDALVFVLIDEVESLTAARNACRAGTEPSDAIRVVNAVLTQIDQIKRHSNVVILTTSNITEKIDVAFVDRADIKQYIAPPSAAAIFKIYLSCLEELMKCQIIYPRQQLLTLRELEMIGFIENNVSKLSLLLNDISRKSEGLSGRVLRKLPFLAHALYVQAPTVTIEGFLQALSLAVDKQFEERKKLAAYI
notes: TRIP13, human; source: E. coli BL21 (DE3), purified (Ni-NTA, TEV, Resource Q, Superdex 200); not shown: His6, N-terminal, cleaved
  binding: no binding
